Test results published in article doi:10.1101/2024.02.16.580630.
Changes are numbered by the printed parent chain. Results are given in words; binding and its absence hold for the method and conditions named. In cells and extracts the contact can be indirect. Some results given as binding are weak or reduced against the parent protein; the word gives no strength. For part of these data: Where a sequence is shown, tags or fusion partners need not be part of it.

Amino acid sequences for entries named in this document (tags omitted). A change or cut given only in a name is not applied to a line headed by its entry.
UniProt P53350, whole entry: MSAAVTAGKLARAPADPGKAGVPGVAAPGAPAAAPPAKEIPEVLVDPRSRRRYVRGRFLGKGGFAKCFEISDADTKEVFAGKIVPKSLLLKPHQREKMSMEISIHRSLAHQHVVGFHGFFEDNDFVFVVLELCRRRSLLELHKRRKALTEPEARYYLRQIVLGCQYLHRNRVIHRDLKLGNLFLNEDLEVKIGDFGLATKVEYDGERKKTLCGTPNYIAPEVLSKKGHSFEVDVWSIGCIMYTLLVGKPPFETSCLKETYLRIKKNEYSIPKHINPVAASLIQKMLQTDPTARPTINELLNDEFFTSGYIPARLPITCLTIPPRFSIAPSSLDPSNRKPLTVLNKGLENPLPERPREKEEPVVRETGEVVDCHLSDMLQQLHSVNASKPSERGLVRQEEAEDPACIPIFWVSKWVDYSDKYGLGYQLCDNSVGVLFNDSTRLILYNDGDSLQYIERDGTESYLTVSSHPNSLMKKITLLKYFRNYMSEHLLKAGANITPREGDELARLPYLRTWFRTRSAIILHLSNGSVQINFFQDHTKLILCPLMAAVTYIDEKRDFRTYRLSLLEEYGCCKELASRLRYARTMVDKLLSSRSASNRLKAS

Legend:
Test in all cases: co-IP
[1] = target: T1, tdTomato-PDHA1 (pyruvate dehydrogenase E1 subunit alpha 1) (UniProt P08559)
T1 sequence: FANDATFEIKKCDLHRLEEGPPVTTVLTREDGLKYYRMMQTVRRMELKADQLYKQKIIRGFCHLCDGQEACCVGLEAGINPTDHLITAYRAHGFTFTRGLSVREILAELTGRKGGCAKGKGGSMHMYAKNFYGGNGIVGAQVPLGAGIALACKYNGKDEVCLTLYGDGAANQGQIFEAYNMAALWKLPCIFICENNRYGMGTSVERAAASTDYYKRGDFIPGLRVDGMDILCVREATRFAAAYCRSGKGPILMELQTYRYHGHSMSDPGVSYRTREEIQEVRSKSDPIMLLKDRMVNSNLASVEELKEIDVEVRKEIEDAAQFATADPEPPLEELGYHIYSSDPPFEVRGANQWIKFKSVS

HA-PDHA1 wild type = target: T2, HA-PDHA1 wild type (UniProt P08559)
T2 sequence: T1 sequence

HA-PDHA1-T57A = target: T3, HA-PDHA1-T57A (UniProt P08559)
T3 sequence: T1 sequence with T28A

Molecule: Flag-PLK1 (polo-like kinase 1) (from UniProt P53350 1-603)
- binding [1]: binds

B1: endogenous PDHB of CrT cells (regulatory subunit of the E1 component of the pyruvate dehydrogenase complex) (protein, UniProt P11177 31-359)
chain: LQVTVRDAINQGMDEELERDEKVFLLGEEVAQYDGAYKVSRGLWKKYGDKRIIDTPISEMGFAGIAVGAAMAGLRPICEFMTFNFSMQAIDQVINSAAKTYYMSGGLQPVPIVFRGPNGASAGVAAQHSQCFAAWYGHCPGLKVVSPWNSEDAKGLIKSAIRDNNPVVVLENELMYGVPFEFPPEAQSKDFLIPIGKAKIERQGTHITVVSHSRPVGHCLEAAAVLSKEGVECEVINMRTIRPMDMETIEASVMKTNHLVTVEGGWPQFGVGAEICARIMEGPAFNFLDAPAVRVTGADVPMPYAKILEDNSIPQVKDIIFAIKKTLNI
- binding (HA-PDHA1 wild type): binds
- binding (HA-PDHA1-T57A): binds
